Here are results for seven molecules from paper PMC5864832.

Sequences of proteins named here, by UniProt entry; tags and fusion partners are left off. Residues count along the entry.
UniProt P50613: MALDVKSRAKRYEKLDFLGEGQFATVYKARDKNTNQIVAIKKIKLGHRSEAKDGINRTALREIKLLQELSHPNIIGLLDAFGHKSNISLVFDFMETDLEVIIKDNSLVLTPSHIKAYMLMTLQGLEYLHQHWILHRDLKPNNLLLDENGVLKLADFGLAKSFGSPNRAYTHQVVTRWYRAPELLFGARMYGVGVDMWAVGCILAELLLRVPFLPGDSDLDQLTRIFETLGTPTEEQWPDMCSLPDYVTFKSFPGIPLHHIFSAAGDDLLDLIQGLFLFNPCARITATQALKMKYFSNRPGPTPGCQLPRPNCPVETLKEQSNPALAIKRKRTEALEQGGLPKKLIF
UniProt P02545, residues 1-646: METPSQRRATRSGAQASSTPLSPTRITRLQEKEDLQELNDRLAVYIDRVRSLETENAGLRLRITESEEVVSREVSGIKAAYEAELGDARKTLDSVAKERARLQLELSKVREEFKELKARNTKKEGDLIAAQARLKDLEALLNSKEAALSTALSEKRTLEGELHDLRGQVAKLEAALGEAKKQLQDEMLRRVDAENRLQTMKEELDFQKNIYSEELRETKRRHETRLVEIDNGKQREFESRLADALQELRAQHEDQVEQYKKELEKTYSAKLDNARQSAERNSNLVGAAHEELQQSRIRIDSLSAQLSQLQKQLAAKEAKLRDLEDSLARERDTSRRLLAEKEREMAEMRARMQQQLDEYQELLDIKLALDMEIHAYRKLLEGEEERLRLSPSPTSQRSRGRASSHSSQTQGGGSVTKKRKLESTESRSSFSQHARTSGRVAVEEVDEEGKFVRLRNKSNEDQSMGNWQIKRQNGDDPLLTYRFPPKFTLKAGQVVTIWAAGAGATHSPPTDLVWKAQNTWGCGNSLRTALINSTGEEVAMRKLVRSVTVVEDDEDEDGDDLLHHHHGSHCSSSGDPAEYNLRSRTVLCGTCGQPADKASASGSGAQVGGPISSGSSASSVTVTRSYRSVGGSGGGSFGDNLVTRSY
UniProt P19447: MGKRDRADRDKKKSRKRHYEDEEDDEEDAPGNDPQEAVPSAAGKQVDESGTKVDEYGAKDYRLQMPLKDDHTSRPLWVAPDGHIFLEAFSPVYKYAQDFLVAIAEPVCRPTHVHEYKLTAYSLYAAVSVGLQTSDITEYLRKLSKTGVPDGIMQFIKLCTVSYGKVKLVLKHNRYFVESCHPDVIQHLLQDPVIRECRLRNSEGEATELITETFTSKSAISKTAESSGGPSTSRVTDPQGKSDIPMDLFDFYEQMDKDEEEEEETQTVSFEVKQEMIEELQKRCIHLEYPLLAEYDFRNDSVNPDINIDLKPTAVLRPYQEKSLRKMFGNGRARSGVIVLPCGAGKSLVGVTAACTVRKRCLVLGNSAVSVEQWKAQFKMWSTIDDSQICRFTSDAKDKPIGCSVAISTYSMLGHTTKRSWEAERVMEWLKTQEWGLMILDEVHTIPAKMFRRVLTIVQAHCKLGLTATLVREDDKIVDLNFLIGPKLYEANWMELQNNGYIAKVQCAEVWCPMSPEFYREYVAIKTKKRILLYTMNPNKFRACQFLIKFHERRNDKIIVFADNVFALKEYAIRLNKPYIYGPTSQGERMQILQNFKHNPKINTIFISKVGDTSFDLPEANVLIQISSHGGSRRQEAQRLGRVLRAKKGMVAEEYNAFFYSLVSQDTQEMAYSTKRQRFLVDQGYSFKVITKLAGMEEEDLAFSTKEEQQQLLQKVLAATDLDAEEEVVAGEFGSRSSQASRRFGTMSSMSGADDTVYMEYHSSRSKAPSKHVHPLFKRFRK
UniProt P32780: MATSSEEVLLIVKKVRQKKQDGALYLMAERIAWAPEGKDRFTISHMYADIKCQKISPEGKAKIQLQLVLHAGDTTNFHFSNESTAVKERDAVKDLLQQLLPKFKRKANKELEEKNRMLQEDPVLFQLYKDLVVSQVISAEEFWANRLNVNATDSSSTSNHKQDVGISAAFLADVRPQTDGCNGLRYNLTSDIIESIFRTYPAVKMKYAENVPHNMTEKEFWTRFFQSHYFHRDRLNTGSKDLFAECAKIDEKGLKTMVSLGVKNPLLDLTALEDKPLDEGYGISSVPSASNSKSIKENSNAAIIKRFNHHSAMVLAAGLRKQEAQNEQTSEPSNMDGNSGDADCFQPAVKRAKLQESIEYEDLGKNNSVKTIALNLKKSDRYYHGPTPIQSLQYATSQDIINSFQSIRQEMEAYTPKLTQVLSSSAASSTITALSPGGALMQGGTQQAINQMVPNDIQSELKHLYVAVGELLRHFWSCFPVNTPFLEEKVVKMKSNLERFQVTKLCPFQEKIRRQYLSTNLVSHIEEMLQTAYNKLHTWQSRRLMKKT

Results are given in words; binding and its absence hold for the method and conditions named. Binding seen in cells or lysates may run through a third protein. These calls come from enrichment with a bait or labelling near it, and not all partners need be listed.

For assay [1], the target named is cyclin-dependent kinase (CDK) 7 (human) (UniProt P50613). Nature of the assay: affinity purification with mass spectrometry; MAC-tagged bait in stable Flp-In T-REx 293 cells, 1 ug/ml tetracycline 24 h, no biotin; lysis buffer 1 (0.5% IGEPAL, 50 mM Hepes pH 8.0, 150 mM NaCl, 50 mM NaF, 5 mM EDTA); single-step Strep-Tactin beads, elution with 0.5 mM biotin; LC-MS; SAINT score >= 0.73 and CRAPome filter against MAC-GFP controls.

The target is the same in assay [2]. The assay can be described thus: proximity labelling; BioID: MAC-tagged bait in stable Flp-In T-REx 293 cells, tetracycline and 50 uM biotin 24 h; lysis buffer 2 (as buffer 1 with 0.1% SDS), sonication, benzonase; biotinylated proteins on Strep-Tactin beads; LC-MS; SAINT and CRAPome filter.
Another assay deals with Prelamin-A/C (human) (UniProt P02545). Nature of the assay: affinity purification with mass spectrometry + proximity labelling; MAC-tagged bait in Flp-In T-REx 293 cells, Strep-Tactin purification, LC-MS; the sentence names the hit without telling which of the two approaches (AP-MS, BioID) found it.

“TFIIH basal transcription factor complex helicase XPB subunit (from UniProt P19447 1-782)”: the binding result in assay [1] and in assay [2] was “binds” in each case. Consider TFIIH1 (from UniProt P32780 1-548), for which the binding result in assay [1] and in assay [2] was “binds” throughout.

B1: AKP8L (protein, UniProt Q9ULX6 1-646)
chain: MSYTGFVQGSETTLQSTYSDTSAQPTCDYGYGTWNSGTNRGYEGYGYGYGYGQDNTTNYGYGMATSHSWEMPSSDTNANTSASGSASADSVLSRINQRLDMVPHLETDMMQGGVYGSGGERYDSYESCDSRAVLSERDLYRSGYDYSELDPEMEMAYEGQYDAYRDQFRMRGNDTFGPRAQGWARDARSGRPMASGYGRMWEDPMGARGQCMSGASRLPSLFSQNIIPEYGMFQGMRGGGAFPGGSRFGFGFGNGMKQMRRTWKTWTTADFRTKKKKRKQGGSPDEPDSKATRTDCSDNSDSDNDEGTEGEATEGLEGTEAVEKGSRVDGEDEEGKEDGREEGKEDPEKGALTTQDENGQTKRKLQAGKKSQDKQKKRQRDRMVERIQFVCSLCKYRTFYEDEMASHLDSKFHKEHFKYVGTKLPKQTADFLQEYVTNKTKKTEELRKTVEDLDGLIQQIYRDQDLTQEIAMEHFVKKVEAAHCAACDLFIPMQFGIIQKHLKTMDHNRNRRLMMEQSKKSSLMVARSILNNKLISKKLERYLKGENPFTDSPEEEKEQEEAEGGALDEGAQGEAAGISEGAEGVPAQPPVPPEPAPGAVSPPPPPPPEEEEEGAVPLLGGALQRQIRGIPGLDVEDDEEGGGGAP
Turning to B1, the binding entry with Prelamin-A/C (human) was “binds”.

B2: TFIIH3 (protein, UniProt Q13889 1-308)
chain: MVSDEDELNLLVIVVDANPIWWGKQALKESQFTLSKCIDAVMVLGNSHLFMNRSNKLAVIASHIQESRFLYPGKNGRLGDFFGDPGNPPEFNPSGSKDGKYELLTSANEVIVEEIKDLMTKSDIKGQHTETLLAGSLAKALCYIHRMNKEVKDNQEMKSRILVIKAAEDSALQYMNFMNVIFAAQKQNILIDACVLDSDSGLLQQACDITGGLYLKVPQMPSLLQYLLWVFLPDQDQRSQLILPPPVHVDYRAACFCHRNLIEIGYVCSVCLSIFCNFSPICTTCETAFKISLPPVLKAKKKKLKVSA
With B2, the binding result in assay [1] and in assay [2] was “binds” in each case.

B3: TFIIH5 (protein, UniProt Q6ZYL4 1-71)
chain: MVNVLKGVLIECDPAMKQFLLYLDESNALGKKFIIQDIDDTHVFVIAELVNVLQERVGELMDQNAFSLTQK
For B3, the binding entry in assay [1] and in assay [2] was “binds” in each case.

B4: TFIIH4 (protein, UniProt Q92759 1-462)
chain: MESTPSRGLNRVHLQCRNLQEFLGGLSPGVLDRLYGHPATCLAVFRELPSLAKNWVMRMLFLEQPLPQAAVALWVKKEFSKAQEESTGLLSGLRIWHTQLLPGGLQGLILNPIFRQNLRIALLGGGKAWSDDTSQLGPDKHARDVPSLDKYAEERWEVVLHFMVGSPSAAVSQDLAQLLSQAGLMKSTEPGEPPCITSAGFQFLLLDTPAQLWYFMLQYLQTAQSRGMDLVEILSFLFQLSFSTLGKDYSVEGMSDSLLNFLQHLREFGLVFQRKRKSRRYYPTRLAINLSSGVSGAGGTVHQPGFIVVETNYRLYAYTESELQIALIALFSEMLYRFPNMVVAQVTRESVQQAIASGITAQQIIHFLRTRAHPVMLKQTPVLPPTITDQIRLWELERDRLRFTEGVLYNQFLSQVDFELLLAHARELGVLVFENSAKRLMVVTPAGHSDVKRFWKRQKHSS
Turning to B4, the binding result in assay [1] and in assay [2] was “binds” each time.

B5: TFIIH2 (protein, UniProt Q13888 1-395)
chain: MDEEPERTKRWEGGYERTWEILKEDESGSLKATIEDILFKAKRKRVFEHHGQVRLGMMRHLYVVVDGSRTMEDQDLKPNRLTCTLKLLEYFVEEYFDQNPISQIGIIVTKSKRAEKLTELSGNPRKHITSLKKAVDMTCHGEPSLYNSLSIAMQTLKHMPGHTSREVLIIFSSLTTCDPSNIYDLIKTLKAAKIRVSVIGLSAEVRVCTVLARETGGTYHVILDESHYKELLTHHVSPPPASSSSECSLIRMGFPQHTIASLSDQDAKPSFSMAHLDGNTEPGLTLGGYFCPQCRAKYCELPVECKICGLTLVSAPHLARSYHHLFPLDAFQEIPLEEYNGERFCYGCQGELKDQHVYVCAVCQNVFCVDCDVFVHDSLHCCPGCIHKIPAPSGV
As for B5, the binding entry in assay [1] and in assay [2] was “binds” each time.
